Data source: PubChem BioAssay AID504791 (Drosophila RNAi Screening Center, 2011)

Aim: 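Genes whose knock-down strengthens or weakens small-RNA reporter silencing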 (primary screen)
Cells: Drosophila S2-derived reporter cells
Reagents: long dsRNA against Drosophila genes, about 150-250 ng dsRNA per well (siRNA assay); about 80-120 ng (miRNA assay)
Time to read-out: about 5 days (siRNA assay); about 4 days (miRNA assay)
Conditions: copper sulfate induction of reporters: 25 µM (siRNA assay); 200 mM stated (miRNA assay), 1-2 days before reading
Measurement: 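Per-well ratio of Renilla over firefly light, expressed relative to that plate's average ratio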
Direction: siRNA reporter hit score: higher = 3 marks a strong hit with raised ratio; -3 a strong hit with lowered ratio
Call rule: 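First-pass picks had plate-scaled ratios over 1.5 for the siRNA assay, over 1.6 for the miRNA assay, or under 0.6; two distinct dsRNAs had to score alike on retest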
The deposit covers about 23,000 reagents; shown is a random part of those that have a named target and a result. Of all reagents, 199 (0.86%) got an active call. 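Plate-scaled ratios behind the calls are not deposited; printed light signals are raw; many rows marked increased or decreased are still called inactive.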 A number with no mark means an inactive call. The numbers tell different reagents against one gene apart. A plus sign joins genes that one reagent is predicted to hit.

Gene | reagent | siRNA reporter hit score | miRNA reporter change | stable assay Renilla, run 1 (luminescence) | stable assay firefly, run 1 (luminescence)
Pgant4 (Polypeptide N-Acetylgalactosaminyltransferase 4) | 1 | – | – | 8390 | 4.37e5
Mi-2 | 1 | – | – | 4892 | 3.55e5
Cib2 (Calcium and integrin binding family member 2) | 1 | – | – | 7866 | 5.38e5
S-Lap7 (Sperm-Leucylaminopeptidase 7) | 1 | – | – | 6622 | 3.45e5
CG10338 | 1 | – | – | 7598 | 6.41e5
CG14232 | 1 | – | – | 6788 | 4.92e5
Dp1 (Dodeca-satellite-binding protein 1) | 1 | – | – | 9982 | 4.17e5
Mhcl (Myosin heavy chain-like) | 1 | – | – | 4063 | 4.42e5
Mhcl (Myosin heavy chain-like) | 2 | – | – | 7810 | 4.05e5
Mhcl (Myosin heavy chain-like) | 3 | – | – | 8630 | 3.52e5
mkg-p + Tpt | 1 | – | – | 5551 | 4.65e5
Theg (Testicular haploid expressed gene) | 1 | – | – | 11435 | 5.47e5
Dlic (Dynein light intermediate chain) | 1 | – | – | 8195 | 5.33e5
in (inturned) | 1 | – | – | 6575 | 4.41e5
Ance-2 | 1 | – | – | 7311 | 3.31e5
Ugt49B1 (UDP-glycosyltransferase family 49 member B1) | 1 | – | – | 6447 | 4.72e5
Rab21 | 1 | – | – | 7030 | 4.41e5
uri (unconventional prefoldin RPB5 interactor) | 1 | – | – | 34725 | 1.23e6
CG14186 | 1 | – | – | 10588 | 4.38e5
CG9356 | 1 | – | – | 7895 | 3.65e5
Vps20 (Vacuolar protein sorting 20) | 1 | – | – | 5991 | 3.52e5
mirr (mirror) | 1 | – | reporter ratio lowered past the hit cutoff | 7342 | 4.78e5
tbrd-1 | 1 | – | – | 7059 | 3.49e5
CG6785 | 1 | – | – | 9098 | 4.61e5
CG6184 | 1 | – | – | 6442 | 3.11e5
spg (sponge) | 1 | – | – | 5602 | 3.19e5
spg (sponge) | 2 | – | – | 5367 | 3.93e5
Sap130 (Sin3A-associated protein 130) | 1 | – | – | 8920 | 5.23e5
Rsph3 (Radial spoke head protein 3) | 1 | – | – | 9078 | 4.65e5
Rsph3 (Radial spoke head protein 3) | 2 | – | – | 5427 | 4.03e5
Lsm11 | 1 | – | – | 5304 | 3.93e5
ND-13B (NADH dehydrogenase (ubiquinone) 13 kDa B subunit) | 1 | – | – | 5611 | 4.31e5
gsb-n (gooseberry-neuro) | 1 | – | – | 5274 | 5.73e5
gsb-n (gooseberry-neuro) | 2 | – | – | 5311 | 4.51e5
Arl1 (ADP ribosylation factor-like 1) | 1 | – | – | 7531 | 3.70e5
CG4332 | 1 | – | – | 7638 | 4.17e5
RSG7 (Regulator of G-protein signaling 7) | 1 | – | – | 4680 | 3.66e5
RSG7 (Regulator of G-protein signaling 7) | 2 | – | – | 5196 | 5.06e5
Or46a (Odorant receptor 46a) | 1 | – | – | 6243 | 3.33e5
Or46a (Odorant receptor 46a) | 2 | – | – | 6835 | 3.52e5
Or46a (Odorant receptor 46a) | 3 | – | – | 9249 | 5.59e5
spz5 (spatzle 5) | 1 | – | – | 10364 | 4.22e5
CG32260 | 1 | – | – | 5064 | 3.12e5
sut3 (sugar transporter 3) | 1 | – | – | 6922 | 3.90e5
Nprl3 (Nitrogen permease regulator-like 3) | 1 | – | – | 13697 | 4.71e5
CG14400 | 1 | – | – | 8197 | 4.10e5
CG42615 | 1 | – | – | 4563 | 4.94e5
CG18609 | 1 | – | – | 6011 | 3.16e5
CG31145 | 1 | – | – | 5388 | 3.20e5
CG31145 | 2 | – | – | 6327 | 4.57e5
CG31145 | 3 | – | – | 4864 | 2.67e5
CG31145 | 4 | -3 | – | 5496 | 3.45e5
CG12502 | 1 | – | – | 6112 | 3.53e5
CG12502 | 2 | – | – | 4255 | 2.98e5
SCAP (SREBP cleavage activating protein) | 1 | – | – | 7139 | 3.58e5
SCAP (SREBP cleavage activating protein) | 2 | – | – | 7435 | 3.87e5
CG11811 | 1 | – | – | 5724 | 3.39e5

Just “stable assay Renilla, run 1 (luminescence)”, for 9 of the entries above:
Mi-2: 4892
Cib2 (Calcium and integrin binding family member 2): 7866
S-Lap7 (Sperm-Leucylaminopeptidase 7): 6622
CG10338: 7598
CG14232: 6788
Dp1 (Dodeca-satellite-binding protein 1): 9982
Mhcl (Myosin heavy chain-like) #1: 4063
Mhcl (Myosin heavy chain-like) #2: 7810
Mhcl (Myosin heavy chain-like) #3: 8630
